Results from patent US8025878.
Substitutions are numbered along the chain they refer to. Results are given in words; binding and its absence hold for the method and conditions named. Some entries that bind do so weakly or less than the wild type. Blank lines part the entries; values can stand above or below the binder they belong to.

Chains of the proteins cited; added tags and fusions are not shown. Residues count along the entry.
UniProt P05067, residues 672-711: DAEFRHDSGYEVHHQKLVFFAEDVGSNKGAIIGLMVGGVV

Experiments:
Aβ monomers [1] = target: Aβ monomers (UniProt P05067); experiment: direct binding ELISA
Aβ monomers [2] = target: Aβ monomers (UniProt P05067); experiment: direct ELISA on Aβ monomer and competition ELISA
Aβ monomers [3] = target: Aβ monomers (UniProt P05067); experiment: competitive ELISA with monomeric and protofibrillar Aβ

binding (Aβ monomers [1]): binds
binding (Aβ monomers [2]): binds
B1: chimeric 158 antibody (158 VH x 158 VK) (antibody, V domains shown)
VH: DVQLVESGGGLVQPGGSRKLSCAASGFTFSSFGMHWVRQAPEKGLEWVAYISSGSSTIYYGDTVKGRFTISRDNPKNTLFLQMTSLRSEDTAMYYCAREGGYYYGRSYYTMDYWGQGTSVTVSS
VL: DVLMTQTPLSLPVSLGDQASISCRSSQSIVHSNGNTYLEWYLQKPGQSPKLLIYKVSNRFSGVPDRFSGSGSGTDFTLKISRVEAEDLGIYYCFQGSHVPPTFGGGTKLEIK

binding (Aβ monomers [3]): binds
B2: humanized 158 antibody (BAN2401) (antibody, V domains shown)
VH: EVQLVESGGGLVQPGGSLRLSCSASGFTFSSFGMHWVRQAPGKGLEWVAYISSGSSTIYYGDTVKGRFTISRDNAKNSLFLQMSSLRAEDTAVYYCAREGGYYYGRSYYTMDYWGQGTTVTVS
VL: B1 VL with L3V, T7S, S14T, L15P, D17A, Q18P, K79R, L88V, G105P
